According to article doi:10.1101/2021.11.18.469142:
Where two headings read alike, the source gives them in different places. These are yes or no findings as the source states them, for the method shown. For some of these results: In cells and extracts the contact can be indirect. Some results given as binding are weak or reduced against the parent protein; the word gives no strength. Sequences can lack the tags named with a protein.

Chains of the proteins cited; added tags and fusions are not shown.
UniProt Q15672: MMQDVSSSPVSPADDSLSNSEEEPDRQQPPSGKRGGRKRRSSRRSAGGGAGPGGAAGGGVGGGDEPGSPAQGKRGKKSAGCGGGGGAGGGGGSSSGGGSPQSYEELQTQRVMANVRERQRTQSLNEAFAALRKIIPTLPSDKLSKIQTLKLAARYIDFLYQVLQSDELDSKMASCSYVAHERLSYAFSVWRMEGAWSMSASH

T1: His-SLUG (UniProt O43623)
T1 sequence: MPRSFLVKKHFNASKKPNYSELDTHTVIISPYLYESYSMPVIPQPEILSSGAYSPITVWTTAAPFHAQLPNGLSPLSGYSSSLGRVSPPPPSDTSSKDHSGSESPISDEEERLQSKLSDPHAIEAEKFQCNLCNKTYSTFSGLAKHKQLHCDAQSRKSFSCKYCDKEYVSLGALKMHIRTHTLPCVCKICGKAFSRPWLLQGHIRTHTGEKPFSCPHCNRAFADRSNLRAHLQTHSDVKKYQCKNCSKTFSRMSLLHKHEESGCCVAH


Experiments:
[1] = molecular target: His-TWIST1 WT (human) (UniProt Q15672); assay: ELISA
[2] = molecular target: T1, His-SLUG; assay: ELISA
[3] = molecular target: FLAG-TWIST1 WT (human) (UniProt Q15672); assay: co-IP
[4] = molecular target: FLAG-TWIST1 WT (human) (UniProt Q15672); assay: co-IP; remark: listed apart in the source

| binding [1] | binding [2] | binding [3] | binding [4] | Binder |
| --- | --- | --- | --- | --- |
| binds | binds |  |  | GST-SETD6 (SET domain-containing protein 6) (enzyme, UniProt Q8TBK2 1-473) MATQAKRPRVAGPVDGGDLDPVACFLSWCRRVGLELSPKVSERAGGRRTRGGARAALTSPPAQVAVSRQGTVAGYGMVARESVQAGELLFVVPRAALLSQHTCSIGGLLERERVALQSQSGWVPLLLALLHELQAPASRWRPYFALWPELGRLEHPMFWPEEERRCLLQGTGVPEAVEKDLANIRSEYQSIVLPFMEAHPDLFSLRVRSLELYHQLVALVMAYSFQEPLEEEEDEKEPNSPVMVPAADILNHLANHNANLEYSANCLRMVATQPIPKGHEIFNTYGQMANWQLIHMYGFVEPYPDNTDDTADIQMVTVREAALQGTKTEAERHLVYERWDFLCKLEMVGEEGAFVIGREEVLTEEELTTTLKVLCMPAEEFRELKDQDGGGDDKREEGSLTITNIPKLKASWRQLLQNSVLLTLQTYATDLKTDQGLLSNKEVYAKLSWREQQALQVRYGQKMILHQLLELTS |
|  |  | binds | binds | HA-SETD6 (enzyme, UniProt Q8TBK2 1-473) MATQAKRPRVAGPVDGGDLDPVACFLSWCRRVGLELSPKVSERAGGRRTRGGARAALTSPPAQVAVSRQGTVAGYGMVARESVQAGELLFVVPRAALLSQHTCSIGGLLERERVALQSQSGWVPLLLALLHELQAPASRWRPYFALWPELGRLEHPMFWPEEERRCLLQGTGVPEAVEKDLANIRSEYQSIVLPFMEAHPDLFSLRVRSLELYHQLVALVMAYSFQEPLEEEEDEKEPNSPVMVPAADILNHLANHNANLEYSANCLRMVATQPIPKGHEIFNTYGQMANWQLIHMYGFVEPYPDNTDDTADIQMVTVREAALQGTKTEAERHLVYERWDFLCKLEMVGEEGAFVIGREEVLTEEELTTTLKVLCMPAEEFRELKDQDGGGDDKREEGSLTITNIPKLKASWRQLLQNSVLLTLQTYATDLKTDQGLLSNKEVYAKLSWREQQALQVRYGQKMILHQLLELTS |
